# Results of single-concentration screens

Source: ChEMBL document CHEMBL3988442, “University of Dundee, Small-Polar-MMV Screening Library” (2021).

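Whole-cell growth test on Mycobacterium tuberculosis, read after 4 days in a medium based on cholesterol and the lipid DPPC; the read-out is not stated. Concentration: 50 µM. Direction is inferred from retests: higher values go with more growth inhibition. Of about 69,000 compounds tested this way, about 370 (0.54%) reached 50% or more in at least one test.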

Values are the deposited “Percent Effect”, in %. How 0% and 100% were set is not recorded. Most values in the screen are low, and negative values occur. Compounds were drawn at random from those tested, without regard to their results. Two or more numbers in one place are separate tests of the same structure; such repeats can differ widely.

{"structure": "COc1ccc(C(=O)N2Cc3cc(C)ccc3OCC2CN(C)C)cc1.Cl", "stereo": "stereo unspecified", "percent effect": 8.465}
{"structure": "Cc1nnc(SCc2cc(=O)n3c4c(sc3n2)CCCC4)[nH]1", "percent effect": 6.758}
{"structure": "Cc1cc2n(n1)CC(CNC1CCN(C3CC3)CC1)CN2", "stereo": "stereo unspecified", "percent effect": 4.135}
{"structure": "O=C(NCCCOC1CCCCC1)C1NCCc2[nH]cnc21", "stereo": "stereo unspecified", "percent effect": -30.47}
{"structure": "COCCS(=O)(=O)Nc1ccc(-n2cncn2)c(F)c1", "percent effect": 0.7517}
{"structure": "O=C(O)C(F)(F)F.O=C(O)C(F)(F)F.[H][C@@]12CCN(Cc3ccncc3)C[C@]1([H])O[C@@H](C(=O)NCC1CCOCC1)C2", "percent effect": 10.52}
{"structure": "Cc1ccc(NC(=O)CNc2cccc3c2CCCC3)c(Br)c1", "percent effect": -6.744}
{"structure": "[H][C@]12CCCCN1CCC[C@H]2CNC(=O)Cn1ccc2ccc(F)cc21", "percent effect": -2.448}
{"structure": "COCCN1CC[C@H](O)[C@@H]1Cc1ccccc1.O=C(O)C(F)(F)F", "percent effect": 14.38}
{"structure": "CCOC(C)c1noc(CN2CCCN(c3ccccn3)CC2)n1", "stereo": "stereo unspecified", "percent effect": 17.26}
{"structure": "O=C(CCC(F)(F)F)NCC1CCCS1", "stereo": "stereo unspecified", "percent effect": 3.984}
{"structure": "CC(=O)N(C)c1nc(CN2CCOC(Cn3cc(C)cn3)C2)cs1", "stereo": "stereo unspecified", "percent effect": -0.5676}
{"structure": "COc1ccc(OCCNc2cccc(C(=O)N3CCOCC3)c2)cc1", "percent effect": -19.12}
{"structure": "O=C(O)C(F)(F)F.O=C(O)C(F)(F)F.[H][C@]12C[C@@H](Cn3cncn3)N(C)[C@@]1([H])CCN(Cc1ccsc1)C2", "percent effect": -8.914}
{"structure": "CCn1c(C)cc(C(=O)N2CCC(NC(=O)c3cc(C)no3)CC2)c1C", "percent effect": -0.7306}
{"structure": "COc1cc(F)ccc1N1CCN(Cc2nnc(C3CC3)o2)CC1", "percent effect": 15.65}
{"structure": "Cc1cnn(CC2CCCN2CC(=O)Nc2nc(C)cs2)c1", "stereo": "stereo unspecified", "percent effect": 17.11}
{"structure": "CN1CCN(Cc2cccnc2)C2(CCN(Cc3ccccn3)C2)C1=O.O=C(O)C(F)(F)F.O=C(O)C(F)(F)F.O=C(O)C(F)(F)F", "stereo": "stereo unspecified", "percent effect": -1.799}
{"structure": "CC(C)Nc1ncnc2c1CCN(C(=O)CC1CCCC1)CC2", "percent effect": -3.398}
{"structure": "Cc1ccc(-c2nnc(CNCCn3cc(C)cn3)o2)cc1", "percent effect": -2.603}
{"structure": "Cc1cccc(OCCC(=O)N2CCCN(CC(N)=O)CC2)c1C", "percent effect": 18.4}
{"structure": "CCn1cc(CN(C)C(=O)c2cccc(CCC(C)(C)O)c2)cn1", "percent effect": -28.68}
{"structure": "[H][C@@]12CN(C(=O)NC)C[C@]1(C(=O)NCC1CC1)CCCN2c1ncccn1", "percent effect": -2.032}
{"structure": "OCC1(NCc2cnc(-c3ccsc3)s2)CCOCC1", "percent effect": 3.423}
{"structure": "Cc1ccc(C(=O)N2CCN(CCCSCC#N)CC2)o1", "percent effect": -4.127}
{"structure": "[H][C@@]12CNC(=O)[C@H](C)[C@]1([H])CN(Cc1cc(OC)cc(OC)c1)C2", "percent effect": "-9.034 and -3.102"}
{"structure": "Cc1ccc(-c2ncc(C(=O)N3CCN4CCCCC4C3)c(O)n2)cc1", "stereo": "stereo unspecified", "percent effect": -2.4}
{"structure": "CC(=O)N1CCC(n2ccc(-c3cnc(N4CCOCC4)nc3)n2)CC1", "percent effect": 9.207}
{"structure": "Cc1cc2nc(C(C)C)cc(N(C)CC3CCCN(CCO)C3)n2n1", "stereo": "stereo unspecified", "percent effect": 33.83}
{"structure": "NC(=O)C(NC(=O)CSCc1ccc(Cl)s1)c1ccccc1", "stereo": "stereo unspecified", "percent effect": -22.03}

Some entries from above, unchanged:

structure,percent effect
Cc1ccc(-c2ncc(C(=O)N3CCN4CCCCC4C3)c(O)n2)cc1 (stereo unspecified),-2.4
Cc1cc2n(n1)CC(CNC1CCN(C3CC3)CC1)CN2 (stereo unspecified),4.135
CCn1cc(CN(C)C(=O)c2cccc(CCC(C)(C)O)c2)cn1,-28.68